Experimental data from PubChem BioAssay AID1487 (National Center for Advancing Translational Sciences (NCATS), 2009).
This is one part of the list. Further columns of the screen follow, without active or inactive calls. Compounds called inactive in the main read-out are mostly missing here. The note in brackets gives the kind of curve behind each potency; many fits are weak.

Assay: qHTS Assay for Modulators of Lamin A Splicing
Details: HeLa LMNA splicing GFP/RFP minigene ratio, 48 h
How it was run: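 Read-out is the ratio of GFP to DsRed2 object intensity, acquired by 488 nm laser-scanning cytometry on HeLa lamin A-EGFP minigene reporter cells. Compound incubation 48 hrs at 37 °C in Opti-MEM with 2% FBS; DMSO 0.5% final.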

[1] = measured here: GFP splicing reporter channel
[2] = measured here: RFP viability control channel

| Compound | AC50 [1] | AC50 [2] |
| --- | --- | --- |
| Cc1cccc(NC(=O)CSc2nc3ccc(NC(=O)c4ccco4)cc3s2)c1 | 35.5 µM [falling, partial curve, poor fit] | – |
| CCN(CC)c1ccc(C(=O)OCC(=O)Nc2ccccc2-c2ccccc2)cc1 | 14.1 µM [rising, partial curve] | 17.8 µM [rising, partial curve] |
| COC(CNC(=O)c1ccc(N2CCc3ccccc32)c([N+](=O)[O-])c1)OC | – | 15.8 µM [rising, single point] |
| CCc1ccc(NC(=O)CSc2nc3n[nH]c(C)c3c(=N)n2-c2ccccc2C)cc1 | 35.5 µM [falling, single point] | 31.6 µM [falling, single point] |
| Cc1ccc(NS(=O)(=O)c2cc(OCC(N)=O)c(C)cc2Cl)cc1C | – | 14.1 µM [rising, single point] |
| COc1ccc(/C=N/NC(=O)c2cc(C(C)(C)C)[nH]n2)cc1COc1ccc(F)cc1F | – | 7.94 µM [rising, partial curve] |
| CC1CCc2cc(F)ccc2N1S(=O)(=O)c1ccc(Cl)nc1 (stereo not drawn) | 7.08 µM [falling, partial curve, poor fit] | – |
| Cc1ccc(NC(=O)COC(=O)/C=C/c2ccccc2)cc1S(=O)(=O)N1CCOCC1 | 3.98 µM [falling, partial curve, poor fit] | – |
| N#Cc1c(NC(=O)c2cc3nc(-c4ccc(Br)cc4)cc(C(F)(F)F)n3n2)sc2c1CCCC2 | – | 6.31 µM [falling, partial curve] |
| CC(C)(C)OC(=O)NCCc1nnc(S(=O)(=O)Cc2ccc(Cl)cc2Cl)o1 | 15.8 µM [falling, single point] | – |
| C=CCCCCCCCCC(=O)OC | – | 1.26 µM [falling, single point] |
| COCCn1c(=O)[nH]c2cc(C(=O)NCCN3CCN(c4ccccc4)CC3)ccc2c1=O | 12.6 µM [rising, single point] | 15.8 µM [rising, single point] |
| CC(C)n1nnnc1-c1cccc(Cl)c1 | 12.6 µM [rising, single point] | – |
| Fc1ccc(CNc2ccc(CNc3ncn[nH]3)cc2)cc1 | 14.1 µM [rising, partial curve] | 28.2 µM [rising, single point] |
| O=C(CSc1nc2ccc([N+](=O)[O-])cc2[nH]1)NC1CCCCCC1 | – | 35.5 µM [rising, single point] |
| CN(C)c1ccnc2sc(C(=O)c3ccccc3)c(N)c12 | 8.91 µM [rising, partial curve, poor fit] | 11.2 µM [rising, partial curve, poor fit] |
| COc1cc(C)c2c(=O)cc(-c3ccccc3)oc2c1 | 22.4 µM [rising, single point] | – |
| Cc1ccc(C(=O)Nc2nc3ccccc3s2)s1 | – | 11.2 µM [rising, single point] |
| Clc1ccc(C(c2nnnn2C2CCCC2)N2CCSCC2)cc1 (stereo not drawn) | 35.5 µM [rising, single point] | – |
| CCCCN1CCCc2cc(CN(CCCN3CCOCC3)C(=O)Nc3ccc(OCC)cc3)ccc21 | 0.0224 µM [rising, full curve, poor fit] | 6.31 µM [rising, full curve, poor fit] |
| Cn1c(N=Nc2ccccc2)nc2ccccc21 | 25.1 µM [rising, single point] | 12.6 µM [rising, partial curve, poor fit] |
| CCc1ccc(C(=O)c2cnc3ccc(OC)cc3c2N2CCN(CC)CC2)cc1 | 14.1 µM [falling, partial curve] | 0.708 µM [falling, partial curve, poor fit] |
| O=C1C=CCC(/C=C/c2ccccc2)O1 (stereo not drawn) | – | 3.55 µM [rising, single point] |
| OC(COCC(F)(F)C(F)(F)C(F)(F)C(F)F)Cn1c2ccccc2c2ccccc21 (stereo not drawn) | 35.5 µM [falling, single point] | 5.62 µM [rising, single point] |
| O=C(Nc1cccc2ccccc12)OCc1cncs1 | – | 0.00355 µM [falling, full curve, poor fit] |
| Cc1cccc(C(=O)N2CCC(=O)N(C(COCc3ccc(Cl)cc3)Cc3ccccc3)CC2)c1 (stereo not drawn) | 12.6 µM [rising, partial curve] | 15.8 µM [rising, partial curve] |
| CCOC(=O)c1ccc(Nc2ncnc3c2cnn3-c2cccc(Cl)c2)cc1 | 22.4 µM [falling, single point] | 35.5 µM [falling, single point] |

Record cards, from the list above. Order of values: AC50 [1]	AC50 [2]
O=C1C=CCC(/C=C/c2ccccc2)O1 (stereo not drawn) is entered as –	3.55 µM [rising, single point]
C=CCCCCCCCCC(=O)OC is entered as –	1.26 µM [falling, single point]
Cn1c(N=Nc2ccccc2)nc2ccccc21 is entered as 25.1 µM [rising, single point]	12.6 µM [rising, partial curve, poor fit]

Next part.

| Compound | AC50 [1] | AC50 [2] |
| --- | --- | --- |
| N=c1c2c(ncn1Cc1ccco1)Oc1ccc3ccccc3c1C2c1ccccc1 (stereo not drawn) | 25.1 µM [falling, partial curve] | 10 µM [falling, single point] |
| Cc1ccc(Nc2nc(N)nc(CN3CCN(Cc4ccc5c(c4)OCO5)CC3)n2)c(C)c1 | 8.91 µM [rising, partial curve] | 11.2 µM [rising, partial curve] |
| CC1Cc2cc(S(=O)(=O)NCc3ccccc3Cl)ccc2N1C(=O)C1CCC1 (stereo not drawn) | 0.0316 µM [falling, full curve] | 10 µM [falling, partial curve] |
| COc1cc(/C=C2\SC(=N)N(c3ccc(F)cc3)C2=O)ccc1O | 14.1 µM [rising, partial curve] | – |
| COc1ccc2[nH]c(=O)c(CNc3cccc(C)c3)cc2c1 | 0.112 µM [falling, full curve, poor fit] | – |
| CCOC(=O)Cn1nnnc1CN(Cc1ccccc1)Cc1cc2cc(CC)ccc2[nH]c1=O | – | 35.5 µM [rising, single point] |
| O=C(COC(=O)c1ccc(Cl)cc1O)NC(=O)C1CCCCC1 | 0.112 µM [falling, full curve, poor fit] | – |
| C=CCOc1ccc2nc(NC(=O)OC)[nH]c2c1 | 4.47 µM [rising, single point] | 2.51 µM [rising, full curve] |
| Cc1cccc(N2CCN(C(=O)C3CCCN(S(=O)(=O)c4cnc[nH]4)C3)CC2C)c1 (stereo not drawn) | – | 0.0355 µM [rising, full curve, poor fit] |
| CCCCC(c1nnnn1CC1CCCO1)N1CCN(c2nc3ccccc3s2)CC1 (stereo not drawn) | 11.2 µM [rising, partial curve] | 17.8 µM [rising, partial curve] |
| Cc1ccc(-c2noc(CSc3nnc(CCc4ccccc4)n3-c3ccccc3)n2)cc1 | – | 17.8 µM [rising, single point] |
| COc1ccccc1N1CCN(CC(=O)NCCc2ccc(S(N)(=O)=O)cc2)CC1 | 0.00447 µM [falling, full curve, poor fit] | 0.562 µM [falling, partial curve, poor fit] |
| CCn1c(=O)c(C(=O)NNS(=O)(=O)c2ccc(C)cc2)c(O)c2ccccc21 | 31.6 µM [rising, single point] | 35.5 µM [rising, single point] |
| COc1ccc(-n2ncc3c(NCCC4=CCCCC4)ncnc32)cc1 | 1.58 µM [falling, partial curve, poor fit] | – |
| CCNC(=S)N(CCc1c(C)[nH]c2ccc(C)cc12)Cc1cccs1 | 0.891 µM [rising, partial curve] | 1.26 µM [rising, single point] |
| COc1nc(OCC#N)nc(N2CCCCC2)n1 | – | 0.794 µM [falling, partial curve] |
| C/C(=N\NC(=O)C1CCCN(S(=O)(=O)c2ccccc2)C1)c1ccccn1 (stereo not drawn) | – | 10 µM [rising, partial curve] |
| Cc1cc2c(N3CCCCC3C)ncnc2s1 (stereo not drawn) | – | 11.2 µM [rising, partial curve, poor fit] |
| O=C(Nc1cccc(OC(F)(F)F)c1)c1ccc(Br)o1 | 35.5 µM [rising, single point] | – |
| Cc1ccc(/C=[N+](/C)[O-])cc1 | 0.0794 µM [rising, full curve, poor fit] | – |
| COc1ccc(Cl)cc1NC(=O)CN(C)CC(=O)Nc1ccccc1N1CCOCC1 | – | 0.0126 µM [rising, full curve, poor fit] |
| Cc1cccc(NC(=O)/C=C/c2ccc(Cl)cc2)n1 | – | 14.1 µM [rising, partial curve] |
| CC(C)Nc1c([N+](=O)[O-])c(=O)oc2ccccc12 | 14.1 µM [falling, partial curve, poor fit] | 12.6 µM [falling, partial curve] |
| O=C(CCS(=O)(=O)Cc1ccccc1)Nc1nc2c(s1)CCCC2 | 3.16 µM [falling, single point] | 2.82 µM [falling, single point] |
| CC1=CC(C)(C)Nc2ccc(OC(=O)c3ccco3)cc21 | 35.5 µM [falling, single point] | 35.5 µM [falling, single point] |
| Cc1cc(C)c(S(=O)(=O)/N=C2/C=C(Sc3ncn[nH]3)C(=O)c3ccccc32)cc1C | 3.98 µM [falling, full curve] | 4.47 µM [falling, full curve, poor fit] |
| COC(=O)CNC(c1ccccc1)c1cc(Cl)ccc1NC(=O)c1cccc(Cl)c1 (stereo not drawn) | 14.1 µM [rising, single point] | 22.4 µM [rising, single point] |
